Results from the supplement of paper PMC10849652.
Some of the results follow.

Protein sequences, listed by entry. Tags and fused reporters are not part of them. Lines headed by an entry give the natural chain unless they say otherwise; changes in a name come on top.
UniProt Q9UBP0: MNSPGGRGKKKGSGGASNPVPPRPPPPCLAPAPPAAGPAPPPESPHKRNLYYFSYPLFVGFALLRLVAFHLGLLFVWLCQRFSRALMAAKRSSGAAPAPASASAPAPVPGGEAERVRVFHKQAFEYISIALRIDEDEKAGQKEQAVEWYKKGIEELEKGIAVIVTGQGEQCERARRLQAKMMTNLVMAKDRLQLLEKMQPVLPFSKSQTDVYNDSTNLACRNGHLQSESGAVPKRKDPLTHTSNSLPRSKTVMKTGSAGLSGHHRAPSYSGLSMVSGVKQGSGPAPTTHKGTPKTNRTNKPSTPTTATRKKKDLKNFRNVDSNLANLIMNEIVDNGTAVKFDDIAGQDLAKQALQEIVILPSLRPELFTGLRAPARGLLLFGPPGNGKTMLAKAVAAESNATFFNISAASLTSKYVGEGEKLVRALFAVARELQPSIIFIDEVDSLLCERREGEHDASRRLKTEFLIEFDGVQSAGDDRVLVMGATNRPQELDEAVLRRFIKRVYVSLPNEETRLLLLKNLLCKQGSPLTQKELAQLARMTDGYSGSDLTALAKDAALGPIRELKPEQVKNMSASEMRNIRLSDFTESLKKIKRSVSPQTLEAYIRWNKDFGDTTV
UniProt Q8WWL2: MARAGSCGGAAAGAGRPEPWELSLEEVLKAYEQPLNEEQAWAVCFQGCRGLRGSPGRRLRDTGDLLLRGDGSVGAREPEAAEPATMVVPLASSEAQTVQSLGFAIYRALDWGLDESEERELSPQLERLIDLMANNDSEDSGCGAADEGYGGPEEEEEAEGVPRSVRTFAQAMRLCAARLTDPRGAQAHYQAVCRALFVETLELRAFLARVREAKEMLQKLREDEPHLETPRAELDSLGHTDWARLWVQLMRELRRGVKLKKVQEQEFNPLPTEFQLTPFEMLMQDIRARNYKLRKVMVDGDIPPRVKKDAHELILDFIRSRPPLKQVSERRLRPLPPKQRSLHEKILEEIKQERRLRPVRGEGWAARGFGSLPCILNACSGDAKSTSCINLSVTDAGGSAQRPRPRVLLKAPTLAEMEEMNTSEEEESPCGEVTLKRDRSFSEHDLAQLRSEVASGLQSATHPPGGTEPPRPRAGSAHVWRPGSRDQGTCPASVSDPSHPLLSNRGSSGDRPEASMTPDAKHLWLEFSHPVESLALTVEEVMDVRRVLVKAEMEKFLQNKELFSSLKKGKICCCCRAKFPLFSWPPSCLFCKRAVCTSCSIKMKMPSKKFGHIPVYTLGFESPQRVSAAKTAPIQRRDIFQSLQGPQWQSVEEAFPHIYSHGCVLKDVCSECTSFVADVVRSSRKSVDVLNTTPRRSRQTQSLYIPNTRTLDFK
UniProt Q9HD15: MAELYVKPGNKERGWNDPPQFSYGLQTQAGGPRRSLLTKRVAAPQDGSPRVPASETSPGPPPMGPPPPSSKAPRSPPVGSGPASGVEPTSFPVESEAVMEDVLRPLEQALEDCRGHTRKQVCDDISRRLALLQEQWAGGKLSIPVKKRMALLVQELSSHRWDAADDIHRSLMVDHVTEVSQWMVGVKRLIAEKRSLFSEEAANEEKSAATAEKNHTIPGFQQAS
UniProt Q8TCT7: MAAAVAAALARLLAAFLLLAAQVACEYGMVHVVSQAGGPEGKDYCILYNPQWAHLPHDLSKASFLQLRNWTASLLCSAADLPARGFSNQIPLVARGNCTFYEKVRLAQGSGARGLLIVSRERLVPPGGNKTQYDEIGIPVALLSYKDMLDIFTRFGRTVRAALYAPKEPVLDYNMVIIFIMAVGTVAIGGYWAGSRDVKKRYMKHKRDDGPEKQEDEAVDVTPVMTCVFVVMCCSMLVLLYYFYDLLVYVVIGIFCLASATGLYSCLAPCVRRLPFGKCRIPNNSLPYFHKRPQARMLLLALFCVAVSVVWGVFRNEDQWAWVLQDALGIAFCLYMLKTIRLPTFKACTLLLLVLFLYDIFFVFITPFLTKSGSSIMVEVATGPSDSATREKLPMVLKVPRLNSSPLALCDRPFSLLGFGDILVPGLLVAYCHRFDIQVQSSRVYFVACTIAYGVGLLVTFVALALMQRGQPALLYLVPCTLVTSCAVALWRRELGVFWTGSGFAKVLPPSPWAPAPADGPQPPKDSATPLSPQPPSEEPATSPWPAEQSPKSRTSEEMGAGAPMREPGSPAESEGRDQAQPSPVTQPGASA
UniProt Q16842: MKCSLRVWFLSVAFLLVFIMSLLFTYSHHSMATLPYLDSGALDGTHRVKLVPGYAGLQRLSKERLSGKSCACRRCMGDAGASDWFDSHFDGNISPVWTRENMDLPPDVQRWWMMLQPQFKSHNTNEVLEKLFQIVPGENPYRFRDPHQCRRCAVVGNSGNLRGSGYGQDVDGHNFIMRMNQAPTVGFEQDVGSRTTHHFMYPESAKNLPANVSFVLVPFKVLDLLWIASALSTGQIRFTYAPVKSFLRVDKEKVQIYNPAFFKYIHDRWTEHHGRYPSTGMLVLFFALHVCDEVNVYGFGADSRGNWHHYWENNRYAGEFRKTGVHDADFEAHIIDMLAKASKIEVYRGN
UniProt P51692: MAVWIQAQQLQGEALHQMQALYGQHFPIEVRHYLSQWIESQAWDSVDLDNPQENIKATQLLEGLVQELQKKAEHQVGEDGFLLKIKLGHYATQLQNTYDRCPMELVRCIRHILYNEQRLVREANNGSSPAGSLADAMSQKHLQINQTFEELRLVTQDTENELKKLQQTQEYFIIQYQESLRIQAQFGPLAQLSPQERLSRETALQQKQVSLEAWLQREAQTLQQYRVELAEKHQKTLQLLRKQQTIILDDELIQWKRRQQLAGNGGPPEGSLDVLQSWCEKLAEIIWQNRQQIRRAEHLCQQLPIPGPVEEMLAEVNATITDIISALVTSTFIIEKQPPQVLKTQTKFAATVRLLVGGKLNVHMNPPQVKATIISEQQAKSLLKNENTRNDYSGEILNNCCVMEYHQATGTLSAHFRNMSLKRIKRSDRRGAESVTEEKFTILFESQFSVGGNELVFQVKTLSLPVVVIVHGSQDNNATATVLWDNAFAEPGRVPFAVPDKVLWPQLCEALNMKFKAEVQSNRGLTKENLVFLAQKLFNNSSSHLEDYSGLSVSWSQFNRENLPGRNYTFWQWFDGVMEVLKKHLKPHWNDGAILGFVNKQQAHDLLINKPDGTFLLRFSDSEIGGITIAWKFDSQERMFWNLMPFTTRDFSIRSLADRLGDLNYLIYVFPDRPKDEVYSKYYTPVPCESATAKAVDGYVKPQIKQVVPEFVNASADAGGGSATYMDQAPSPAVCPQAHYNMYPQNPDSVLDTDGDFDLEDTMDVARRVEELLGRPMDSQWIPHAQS
UniProt Q8WW59: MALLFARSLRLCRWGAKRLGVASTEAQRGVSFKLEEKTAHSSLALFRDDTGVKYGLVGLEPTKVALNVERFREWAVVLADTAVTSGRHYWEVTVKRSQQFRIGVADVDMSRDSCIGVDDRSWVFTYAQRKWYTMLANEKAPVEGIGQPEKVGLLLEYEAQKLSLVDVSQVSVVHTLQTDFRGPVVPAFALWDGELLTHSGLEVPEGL
UniProt P40763, whole entry, looked up: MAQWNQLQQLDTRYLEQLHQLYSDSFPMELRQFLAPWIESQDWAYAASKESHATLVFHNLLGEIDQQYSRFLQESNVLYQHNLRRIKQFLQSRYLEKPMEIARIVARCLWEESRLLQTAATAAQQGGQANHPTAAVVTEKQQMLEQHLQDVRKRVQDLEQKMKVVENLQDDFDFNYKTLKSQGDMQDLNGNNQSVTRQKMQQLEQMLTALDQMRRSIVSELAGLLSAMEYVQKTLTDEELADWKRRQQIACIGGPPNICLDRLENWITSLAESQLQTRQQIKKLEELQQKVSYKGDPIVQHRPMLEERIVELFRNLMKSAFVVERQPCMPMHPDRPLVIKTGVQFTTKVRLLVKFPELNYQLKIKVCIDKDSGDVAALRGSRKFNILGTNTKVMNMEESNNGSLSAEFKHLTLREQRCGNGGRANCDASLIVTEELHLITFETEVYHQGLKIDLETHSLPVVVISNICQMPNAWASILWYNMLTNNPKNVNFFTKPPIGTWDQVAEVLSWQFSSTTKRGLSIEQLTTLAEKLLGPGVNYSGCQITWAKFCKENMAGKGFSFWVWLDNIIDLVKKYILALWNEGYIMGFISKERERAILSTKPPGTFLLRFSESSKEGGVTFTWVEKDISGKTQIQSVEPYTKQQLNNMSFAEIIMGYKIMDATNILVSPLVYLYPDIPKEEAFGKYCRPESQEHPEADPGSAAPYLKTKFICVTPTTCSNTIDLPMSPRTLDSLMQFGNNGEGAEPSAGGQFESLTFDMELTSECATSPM
UniProt Q8NEF9: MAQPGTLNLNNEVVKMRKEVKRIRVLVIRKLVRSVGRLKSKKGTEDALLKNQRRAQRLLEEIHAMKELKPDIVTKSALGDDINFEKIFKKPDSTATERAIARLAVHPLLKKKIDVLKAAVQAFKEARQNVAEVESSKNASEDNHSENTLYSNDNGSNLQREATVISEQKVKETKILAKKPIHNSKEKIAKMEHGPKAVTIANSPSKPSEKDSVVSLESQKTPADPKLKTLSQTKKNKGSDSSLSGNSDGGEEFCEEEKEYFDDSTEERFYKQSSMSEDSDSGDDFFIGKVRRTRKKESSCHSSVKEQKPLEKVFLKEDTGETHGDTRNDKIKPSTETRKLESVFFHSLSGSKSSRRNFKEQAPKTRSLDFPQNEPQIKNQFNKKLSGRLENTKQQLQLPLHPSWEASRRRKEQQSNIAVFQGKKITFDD
UniProt P42229: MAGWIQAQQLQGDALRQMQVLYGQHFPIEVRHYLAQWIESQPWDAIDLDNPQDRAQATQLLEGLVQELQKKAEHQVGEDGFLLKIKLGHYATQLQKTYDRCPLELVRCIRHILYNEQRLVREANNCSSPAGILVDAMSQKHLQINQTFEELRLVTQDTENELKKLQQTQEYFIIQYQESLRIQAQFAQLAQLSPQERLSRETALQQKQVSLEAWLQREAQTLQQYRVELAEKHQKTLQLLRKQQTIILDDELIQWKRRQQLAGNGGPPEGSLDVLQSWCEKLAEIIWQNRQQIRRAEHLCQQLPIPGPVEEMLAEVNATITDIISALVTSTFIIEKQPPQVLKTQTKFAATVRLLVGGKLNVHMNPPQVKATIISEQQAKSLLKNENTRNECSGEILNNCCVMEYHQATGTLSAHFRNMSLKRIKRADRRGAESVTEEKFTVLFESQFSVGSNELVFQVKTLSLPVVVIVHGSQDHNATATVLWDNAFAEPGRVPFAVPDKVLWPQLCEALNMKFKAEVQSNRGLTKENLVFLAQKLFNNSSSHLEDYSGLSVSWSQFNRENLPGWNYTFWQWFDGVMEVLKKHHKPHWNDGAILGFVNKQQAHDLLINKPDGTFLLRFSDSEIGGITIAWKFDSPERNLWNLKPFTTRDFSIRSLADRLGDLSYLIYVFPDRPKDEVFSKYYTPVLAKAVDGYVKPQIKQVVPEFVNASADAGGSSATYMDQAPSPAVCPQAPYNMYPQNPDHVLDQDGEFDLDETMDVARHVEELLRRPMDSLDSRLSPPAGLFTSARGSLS
UniProt O76094: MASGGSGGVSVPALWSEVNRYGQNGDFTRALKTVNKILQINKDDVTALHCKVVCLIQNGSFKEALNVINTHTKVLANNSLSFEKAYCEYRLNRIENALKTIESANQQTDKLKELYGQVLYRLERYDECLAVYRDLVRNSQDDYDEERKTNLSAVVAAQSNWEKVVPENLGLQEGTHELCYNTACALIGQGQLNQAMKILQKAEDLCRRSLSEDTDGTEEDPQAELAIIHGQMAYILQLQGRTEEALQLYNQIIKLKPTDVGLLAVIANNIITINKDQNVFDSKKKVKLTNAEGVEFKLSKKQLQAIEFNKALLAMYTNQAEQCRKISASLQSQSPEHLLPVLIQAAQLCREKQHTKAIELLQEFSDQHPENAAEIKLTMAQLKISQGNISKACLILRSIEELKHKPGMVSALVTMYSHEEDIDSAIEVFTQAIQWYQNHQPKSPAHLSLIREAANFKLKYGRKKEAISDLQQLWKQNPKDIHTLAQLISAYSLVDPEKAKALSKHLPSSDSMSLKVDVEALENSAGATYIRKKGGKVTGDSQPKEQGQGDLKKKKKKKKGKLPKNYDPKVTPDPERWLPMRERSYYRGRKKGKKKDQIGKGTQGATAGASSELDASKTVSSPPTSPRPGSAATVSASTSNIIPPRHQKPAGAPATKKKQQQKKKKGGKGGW
UniProt Q16629: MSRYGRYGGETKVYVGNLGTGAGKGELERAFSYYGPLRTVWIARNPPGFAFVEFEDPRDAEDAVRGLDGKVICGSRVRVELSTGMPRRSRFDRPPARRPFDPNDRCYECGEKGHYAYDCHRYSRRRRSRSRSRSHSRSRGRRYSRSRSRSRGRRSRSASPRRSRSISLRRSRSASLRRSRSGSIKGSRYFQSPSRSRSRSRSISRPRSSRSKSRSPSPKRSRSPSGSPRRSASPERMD
UniProt P51571: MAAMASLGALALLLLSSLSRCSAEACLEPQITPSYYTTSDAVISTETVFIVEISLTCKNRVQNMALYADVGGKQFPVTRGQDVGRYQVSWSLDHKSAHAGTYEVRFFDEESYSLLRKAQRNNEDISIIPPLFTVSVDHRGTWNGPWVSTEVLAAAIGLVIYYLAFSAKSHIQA

What follows are targets tested with Cc1cccc(CC(=O)N2CCc3c2ccc(-c2cn(C)c4ncnc(N)c24)c3F)n1 (assay: log2 fold change, soluble protein after heating vs DMSO (PISA); higher = thermal stabilisation; K562 cells, 10 uM, 30 min; active = over 0.2 and 3.5 SD of the protein, either way, in both replicates (recomputed)).
Outline: (§1)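 K562 cells at 2×10^6 cells/mL were treated for 30 min with 10 μM compound, and aliquots were heated for 3 min over 48°C-58°C before pooling. Extraction used PBS with 0.5% NP-40 at 4°C, and soluble protein was the supernatant after 21,000xg for 90 min, measured by TMTpro 16plex LC-MS/MS with channel sums equalised. Thermal stability values, relative to control samples and from duplicates, are log2 fold changes.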

| Target | log2 fold change |
| --- | --- |
| SPAST (UniProt Q9UBP0) | inactive: -0.057 |
| SPIRE2 (UniProt Q8WWL2) | inactive: -0.095 |
| SPHK1 isoform 2 (UniProt Q9NYA1) | inactive: -0.027 |
| SPPL2A (UniProt Q8TCT8) | inactive: -0.125 |
| SRA1 (UniProt Q9HD15) | inactive: 0.013 |
| STIM1 (UniProt Q13586) | inactive: 0 |
| SPTBN1 (UniProt Q01082) | inactive: -0.017 |
| SRSF3 (UniProt P84103) | inactive: -0.028 |
| SPECC1 (UniProt Q5M775) | inactive: -0.1 |
| STAG1 (UniProt Q8WVM7) | inactive: 0.063 |
| SPPL2B (UniProt Q8TCT7) | inactive: 0.066 |
| SRP54 (UniProt P61011) | inactive: 0.058 |
| ST3GAL2 (UniProt Q16842) | inactive: -0.008 |
| SRSF1 (UniProt Q07955) | inactive: -0.166 |
| STAT1 (UniProt P42224) | inactive: -0.026 |
| STAT5B (UniProt P51692) | inactive: 0.109 |
| STEAP3 isoform 2 (UniProt Q658P3) | inactive: 0.058 |
| SPRYD4 (UniProt Q8WW59) | inactive: 0.016 |
| SRGAP2 (UniProt O75044) | inactive: 0.002 |
| SRPK2 isoform 2 (UniProt P78362) | inactive: -0.047 |

| Target | log2 fold change |
| --- | --- |
| SPART (UniProt Q8N0X7) | inactive: -0.024 |
| STK24 (UniProt Q9Y6E0) | inactive: -0.006 |
| STAT3 (UniProt P40763) | inactive: -0.003 |
| SPECC1L (UniProt Q69YQ0) | inactive: 0.011 |
| SSU72 (UniProt Q9NP77) | inactive: 0.156 |
| SPTLC1 (UniProt O15269) | inactive: 0.053 |
| SRFBP1 (UniProt Q8NEF9) | inactive: -0.014 |
| STAU2 (UniProt Q9NUL3) | inactive: -0.053 |
| STAT5A (UniProt P42229) | inactive: 0.208 |
| SRSF4 (UniProt Q08170) | inactive: -0.064 |
| SRP72 (UniProt O76094) | inactive: 0.048 |
| SRSF7 (UniProt Q16629) | inactive: -0.055 |
| SSR4 (UniProt P51571) | inactive: -0.057 |
| SPTBN4 (UniProt Q9H254) | inactive: -0.044 |
| SPATA5L1 (UniProt Q9BVQ7) | inactive: -0.023 |
| SPG11 (UniProt Q96JI7) | inactive: -0.584 |
| STAT6 (UniProt P42226) | active: 0.502 |
| STARD9 (UniProt Q9P2P6) | inactive: -0.029 |
| SREK1 isoform 2 (UniProt Q8WXA9) | inactive: 0.015 |

These targets were tested with Cc1cn(-c2cc(NC(=O)c3ccc(C)c(Nc4nccc(-c5cccnc5)n4)c3)cc(C(F)(F)F)c2)cn1 [nilotinib] in the same assay as above.
Outline: as §1

| Target | log2 fold change |
| --- | --- |
| SPAST (UniProt Q9UBP0) | inactive: -0.05 |
| SPHK1 isoform 2 (UniProt Q9NYA1) | inactive: -0.02 |
| SRA1 (UniProt Q9HD15) | inactive: -0.005 |
| STIM1 (UniProt Q13586) | inactive: 0.002 |
| SPTBN1 (UniProt Q01082) | inactive: -0.01 |
| SRSF3 (UniProt P84103) | inactive: 0.075 |
| SPECC1 (UniProt Q5M775) | inactive: -0.108 |
| STAG1 (UniProt Q8WVM7) | inactive: 0.036 |
| SPPL2B (UniProt Q8TCT7) | inactive: -0.016 |
| SRP54 (UniProt P61011) | inactive: -0.029 |
| ST3GAL2 (UniProt Q16842) | inactive: 0.191 |
| SRSF1 (UniProt Q07955) | inactive: 0.066 |
| STAT1 (UniProt P42224) | inactive: -0.035 |
| STAT5B (UniProt P51692) | inactive: -0.218 |
| ST6GALNAC1 (UniProt Q9NSC7) | inactive: 0.083 |
| STEAP3 isoform 2 (UniProt Q658P3) | inactive: -0.001 |
| SPRYD4 (UniProt Q8WW59) | inactive: 0.048 |
| SRGAP2 (UniProt O75044) | inactive: 0.025 |

| Target | log2 fold change |
| --- | --- |
| SRPK2 isoform 2 (UniProt P78362) | inactive: 0.005 |
| SPART (UniProt Q8N0X7) | inactive: -0.047 |
| STK24 (UniProt Q9Y6E0) | inactive: -0.083 |
| STAT3 (UniProt P40763) | inactive: -0.097 |
| SPECC1L (UniProt Q69YQ0) | inactive: 0.01 |
| SPTLC1 (UniProt O15269) | inactive: 0.086 |
| SRFBP1 (UniProt Q8NEF9) | inactive: 0.303 |
| STAT5A (UniProt P42229) | inactive: -0.112 |
| SRSF4 (UniProt Q08170) | inactive: 0.013 |
| SRP72 (UniProt O76094) | inactive: -0.117 |
| SRSF7 (UniProt Q16629) | inactive: 0.156 |
| SSR4 (UniProt P51571) | inactive: -0.001 |
| SPTBN4 (UniProt Q9H254) | inactive: -0.167 |
| SPATA5L1 (UniProt Q9BVQ7) | inactive: -0.004 |
| SPG11 (UniProt Q96JI7) | inactive: -0.015 |
| STAT6 (UniProt P42226) | inactive: -0.082 |
| STARD9 (UniProt Q9P2P6) | inactive: 0.016 |
| SREK1 isoform 2 (UniProt Q8WXA9) | inactive: 0.156 |
